Results are given in words; binding and its absence hold for the method and conditions named. A result given as binding can be weak or reduced; the word gives no strength.
Target: mutated protomer of the pseudomonomeric LARGE1dTM heterodimer (UniProt O95461)
Experiment: tandem affinity purification; co-expression of two differently tagged LARGE1dTM protomers (FLAG-tagged DXD1 and his-tagged DXD3), then tandem affinity purification

- binding: binds
B1: wild-type protomer of the pseudomonomeric LARGE1dTM heterodimer (enzyme, UniProt O95461 34-756)
chain: FEDGKPVSLSPLESQAHSPRYTASSQRERESLEVRMREVEEENRALRRQLSLAQGRAPSHRRGNHSKTYSMEEGTGDSENLRAGIVAGNSSECGQQPVVEKCETIHVAIVCAGYNASRDVVTLVKSVLFHRRNPLHFHLIADSIAEQILATLFQTWMVPAVRVDFYNADELKSEVSWIPNKHYSGIYGLMKLVLTKTLPANLERVIVLDTDITFATDIAELWAVFHKFKGQQVLGLVENQSDWYLGNLWKNHRPWPALGRGYNTGVILLLLDKLRKMKWEQMWRLTAERELMGMLSTSLADQDIFNAVIKQNPFLVYQLPCFWNVQLSDHTRSEQCYRDVSDLKVIHWNSPKKLRVKNKHVEFFRNLYLTFLEYDGNLLRRELFGCPSEADVNSENLQKQLSELDEDDLCYEFRRERFTVHRTHLYFLHYEYEPAADSTDVTLVAQLSMDRLQMLEAICKHWEGPISLALYLSDAEAQQFLRYAQGSEVLMSRHNVGYHIVYKEGQFYPVNLLRNVAMKHISTPYMFLSDIDFLPMYGLYEYLRKSVIQLDLANTKKAMIVPAFETLRYRLSFPKSKAELLSMLDMGTLFTFRYHVWTKGHAPTNFAKWRTATTPYRVEWEADFEPYVVVRRDCPEYDRRFVGFGWNKVAHIMELDVQEYEFIVLPNAYMIHMPHAPSFDITKFRSNKQYRICLKTLKEEFQQDMSRRYGFAALKYLTAENNS

Source: article PMC12514197, “LARGE1 processively polymerizes length-controlled matriglycan on prodystroglycan” (Nature Communications, 2025)
